Assay [1] addresses CycC (recombinant, untagged) (human) (UniProt P24863). The assay can be described thus: cross-linking.
In assay [2] the target is Cdk8 (endogenous, Hela) (human (endogenous in Hela)) (UniProt P49336). The experiment in a line: co-IP.

Sequences of proteins named here, by UniProt entry; tags and fusion partners are left off.
UniProt P24863: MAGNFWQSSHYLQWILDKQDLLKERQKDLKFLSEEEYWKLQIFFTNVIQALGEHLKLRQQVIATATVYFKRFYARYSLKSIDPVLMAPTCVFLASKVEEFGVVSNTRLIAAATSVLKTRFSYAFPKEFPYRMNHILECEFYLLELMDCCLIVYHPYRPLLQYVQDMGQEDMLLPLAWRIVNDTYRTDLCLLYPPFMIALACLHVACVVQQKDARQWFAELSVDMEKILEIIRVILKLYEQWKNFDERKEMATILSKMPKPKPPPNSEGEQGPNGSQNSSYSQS
UniProt P49336: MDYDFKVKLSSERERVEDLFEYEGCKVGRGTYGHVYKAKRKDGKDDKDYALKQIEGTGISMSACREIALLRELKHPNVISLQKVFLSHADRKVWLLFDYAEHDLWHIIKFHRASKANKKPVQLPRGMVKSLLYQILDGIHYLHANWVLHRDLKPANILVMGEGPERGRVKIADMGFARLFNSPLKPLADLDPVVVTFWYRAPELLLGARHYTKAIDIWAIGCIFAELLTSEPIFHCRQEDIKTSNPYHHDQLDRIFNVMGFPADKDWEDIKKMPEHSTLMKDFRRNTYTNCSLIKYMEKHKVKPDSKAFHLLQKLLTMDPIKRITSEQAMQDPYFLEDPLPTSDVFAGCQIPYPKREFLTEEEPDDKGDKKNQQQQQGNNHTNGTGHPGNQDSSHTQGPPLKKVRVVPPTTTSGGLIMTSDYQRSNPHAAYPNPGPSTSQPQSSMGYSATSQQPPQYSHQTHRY

Results are given in words; binding and its absence hold for the method and conditions named. For part of these data: Binding seen in cells or lysates may run through a third protein. Some entries that bind do so weakly or less than the wild type. For part of these data: Tags and fused reporters may be left off the sequences shown.

B1: MTBP(C) (MTBP residues 516-904, C-terminal Strep-tag) (domain or fragment, UniProt Q96DY7 516-904)
chain: AVIPKMILRKMDKIKTFNILNDFSPVEPNSSSLMETNPLEWPERHVLQNLETFEKTKQKMRTGSLPHSSEQLLGHKEGPRDSITLLDAKELLKYFTSDGLPIGDLQPLPIQKGEKTFVLTPELSPGKLQVLPFEKASVCHYHGIEYCLDDRKALERDGGFSELQSRLIRYETQTTCTRESFPVPTVLSPLPSPVVSSDPGSVPDGEVLQNELRTEVSRLKRRSKDLNCLYPRKRLVKSESSESLLSQTTGNSNHYHHHVTSRKPQTERSLPVTCPLVPIPSCETPKLATKTSSGQKSMHESKTSRQIKESRSQKHTRILKEVVTETLKKHSITETHECFTACSQRLFEISKFYLKDLKTSRGLFEEMKKTANNNAVQVIDWVLEKTSKK
On to B1, for which the binding entry in assay [1] was “binds”.

B2: MTBP (endogenous, full-length) (protein, UniProt Q96DY7 1-904)
chain: MDRYLLLVIWGEGKFPSAASREAEHGPEVSSGEGTENQPDFTAANVYHLLKRSISASINPEDSTFPACSVGGIPGSKKWFFAVQAIYGFYQFCSSDWQEIHFDTEKDKIEDVLQTNIEECLGAVECFEEEDSNSRESLSLADLYEEAAENLHQLSDKLPAPGRAMVDIILLLSDKDPPKLKDYLPTVGALKHLREWYSAKITIAGNHCEINCQKIAEYLSANVVSLEDLRNVIDSKELWRGKIQIWERKFGFEISFPEFCLKGVTLKNFSTSNLNTDFLAKKIIPSKDKNILPKVFHYYGPALEFVQMIKLSDLPSCYMSDIEFELGLTNSTKQNSVLLLEQISSLCSKVGALFVLPCTISNILIPPPNQLSSRKWKEYIAKKPKTISVPDVEVKGECSSYYLLLQGNGNRRCKATLIHSANQINGSFALNLIHGKMKTKTEEAKLSFPFDLLSLPHFSGEQIVQREKQLANVQVLALEECLKRRKLAKQPETVSVAELKSLLVLTRKHFLDYFDAVIPKMILRKMDKIKTFNILNDFSPVEPNSSSLMETNPLEWPERHVLQNLETFEKTKQKMRTGSLPHSSEQLLGHKEGPRDSITLLDAKELLKYFTSDGLPIGDLQPLPIQKGEKTFVLTPELSPGKLQVLPFEKASVCHYHGIEYCLDDRKALERDGGFSELQSRLIRYETQTTCTRESFPVPTVLSPLPSPVVSSDPGSVPDGEVLQNELRTEVSRLKRRSKDLNCLYPRKRLVKSESSESLLSQTTGNSNHYHHHVTSRKPQTERSLPVTCPLVPIPSCETPKLATKTSSGQKSMHESKTSRQIKESRSQKHTRILKEVVTETLKKHSITETHECFTACSQRLFEISKFYLKDLKTSRGLFEEMKKTANNNAVQVIDWVLEKTSKK
On to B2, for which the binding result in assay [2] was “binds”.

B3: Med12(N100) (recombinant Med12 residues 1-100) (domain or fragment, UniProt Q93074 1-100)
chain: MAAFGILSYEHRPLKRPRLGPPDVYPQDPKQKEDELTALNVKQGFNNQPAVSGDEHGSAKNVSFNPAKISSNFSSIIAEKLRCNTLPDTGRRKPQVNQKD
B3: the binding result in assay [1] was “binds”.

Source of the values: article doi:10.1101/2025.06.16.659917.
